Measured values from publication PMC4311984.
No constants are given. Whether binding was seen depends on the method and setting.

T1: major birch pollen allergen Bet v 1.0101 (birch), P15494
T1 chain: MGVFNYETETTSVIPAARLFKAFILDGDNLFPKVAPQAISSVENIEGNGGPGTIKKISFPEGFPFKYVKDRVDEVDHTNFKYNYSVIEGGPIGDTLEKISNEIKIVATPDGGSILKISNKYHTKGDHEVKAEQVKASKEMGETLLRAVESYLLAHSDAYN


Experiments:
[1] = molecular target: celery allergen Api g 1.0101 (celery) (UniProt P49372); assay: SEC; Superdex S75 10/300; 75 μl of protein at 1 mg/ml injected; 50 mM Na-phosphate buffer, pH 7.4, 150 mM NaCl, 0.02% (w/v) sodium azide; calibrated with Bio-Rad Gel Filtration Standard and bovine aprotinin; duplicates; both purified
[2] = molecular target: T1, major birch pollen allergen Bet v …; assay: as above; details: remark: other sources report otherwise

binding [1] | binding [2] | Binder
no binding (tested: 1 mg/ml) | – | celery allergen Api g 1.0101 (protein, UniProt P49372 1-154) MGVQTHVLELTSSVSAEKIFQGFVIDVDTVLPKAAPGAYKSVEIKGDGGPGTLKIITLPDGGPITTMTLRIDGVNKEALTFDYSVIDGDILLGFIESIENHVVLVPTADGGSICKTTAIFHTKGDAVVPEENIKYANEQNTALFKALEAYLIAN
– | no binding (tested: 1 mg/ml) | major birch pollen allergen Bet v 1.0101, P15494 1-160 (protein) MGVFNYETETTSVIPAARLFKAFILDGDNLFPKVAPQAISSVENIEGNGGPGTIKKISFPEGFPFKYVKDRVDEVDHTNFKYNYSVIEGGPIGDTLEKISNEIKIVATPDGGSILKISNKYHTKGDHEVKAEQVKASKEMGETLLRAVESYLLAHSDAYN
